These are yes or no findings as the source states them, for the method shown. A result given as binding can be weak or reduced; the word gives no strength.

Test [1] concerns the target T1, Delta (Drosophila), expression construct pMTDl1 (Drosophila) (UniProt P10041).
T1 sequence: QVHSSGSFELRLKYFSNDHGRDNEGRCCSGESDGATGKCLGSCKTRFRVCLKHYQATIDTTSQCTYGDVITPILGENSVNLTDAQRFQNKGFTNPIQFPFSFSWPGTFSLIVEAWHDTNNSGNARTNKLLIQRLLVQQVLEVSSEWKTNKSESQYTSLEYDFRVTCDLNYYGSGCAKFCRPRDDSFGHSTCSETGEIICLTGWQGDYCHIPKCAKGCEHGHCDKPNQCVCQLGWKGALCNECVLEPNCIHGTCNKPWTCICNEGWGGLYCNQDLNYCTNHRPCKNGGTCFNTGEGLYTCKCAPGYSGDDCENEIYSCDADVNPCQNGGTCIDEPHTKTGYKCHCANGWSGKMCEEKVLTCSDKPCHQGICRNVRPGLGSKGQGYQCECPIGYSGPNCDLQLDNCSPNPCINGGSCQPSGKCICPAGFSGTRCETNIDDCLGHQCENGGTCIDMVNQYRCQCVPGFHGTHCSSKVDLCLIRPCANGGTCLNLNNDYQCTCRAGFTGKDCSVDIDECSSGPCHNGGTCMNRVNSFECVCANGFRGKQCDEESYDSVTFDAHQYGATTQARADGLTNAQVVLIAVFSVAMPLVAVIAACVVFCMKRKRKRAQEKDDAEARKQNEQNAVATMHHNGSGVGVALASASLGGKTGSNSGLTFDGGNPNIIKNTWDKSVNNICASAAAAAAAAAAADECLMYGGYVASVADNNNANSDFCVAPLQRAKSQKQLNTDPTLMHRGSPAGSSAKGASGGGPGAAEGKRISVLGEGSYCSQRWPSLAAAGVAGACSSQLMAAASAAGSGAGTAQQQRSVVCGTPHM
The experiment in a line: S2 cell aggregation with Delta cells.

In test [2] the target is T1, Delta (Drosophila), expression construct pMTDl1 (Drosophila). The experiment in a line: S2 cell aggregation with Delta cells, with or without Ca2+.

With “Notch deletion construct #32 ΔECN+EGF(11-12) (receptor)”, the binding entry in test [1] and in test [2] was “binds” each time.

These data come from patent publication US20050112121A1 (YALE UNIVERSITY, published 2005).
